This experiment addresses adipose triglyceride lipase (ATGL) (mouse (endogenous in 3T3-L1 adipocytes and mouse WAT)) (UniProt Q8BJ56). Put plainly: SDS-PAGE band of a 4G8 immunoprecipitate with in-gel digestion and MS/MS; proteins precipitated with the 4G8 antibody, separated on SDS gel; 55 kDa and 150 kDa bands cut out, digested with trypsin and analysed by LC-MS/MS.

These are yes or no findings as the source states them, for the method shown. Some entries that bind do so weakly or less than the wild type.

B1: adipose triglyceride lipase (ATGL) (protein, UniProt Q8BJ56 1-486)
chain: MFPRETKWNISFAGCGFLGVYHIGVASCLREHAPFLVANATHIYGASAGALTATALVTGACLGEAGANIIEVSKEARKRFLGPLHPSFNLVKTIRGCLLKTLPADCHERANGRLGISLTRVSDGENVIISHFSSKDELIQANVCSTFIPVYCGLIPPTLQGVRYVDGGISDNLPLYELKNTITVSPFSGESDICPQDSSTNIHELRVTNTSIQFNLRNLYRLSKALFPPEPMVLREMCKQGYRDGLRFLRRNGLLNQPNPLLALPPVVPQEEDAEEAAVVEERAGEEDQLQPYRKDRILEHLPARLNEALLEACVEPKDLMTTLSNMLPVRLATAMMVPYTLPLESAVSFTIRLLEWLPDVPEDIRWMKEQTGSICQYLVMRAKRKLGDHLPSRLSEQVELRRAQSLPSVPLSCATYSEALPNWVRNNLSLGDALAKWEECQRQLLLGLFCTNVAFPPDALRMRAPASPTAADPATPQDPPGLPPC
Consider B1, for which the binding entry was “binds”.

These data come from publication PMC11577098.
